The values below come from PMC5841321.

Sequences and labels used below:
B1: U4/U6.U5 tri-snRNP-associated protein 2 (protein, UniProt Q53GS9 1-565)
chain: MSGRSKRESRGSTRGKRESESRGSSGRVKRERDREREPEAASSRGSPVRVKREFEPASAREAPASVVPFVRVKREREVDEDSEPEREVRAKNGRVDSEDRRSRHCPYLDTINRSVLDFDFEKLCSISLSHINAYACLVCGKYFQGRGLKSHAYIHSVQFSHHVFLNLHTLKFYCLPDNYEIIDSSLEDITYVLKPTFTKQQIANLDKQAKLSRAYDGTTYLPGIVGLNNIKANDYANAVLQALSNVPPLRNYFLEEDNYKNIKRPPGDIMFLLVQRFGELMRKLWNPRNFKAHVSPHEMLQAVVLCSKKTFQITKQGDGVDFLSWFLNALHSALGGTKKKKKTIVTDVFQGSMRIFTKKLPHPDLPAEEKEQLLHNDEYQETMVESTFMYLTLDLPTAPLYKDEKEQLIIPQVPLFNILAKFNGITEKEYKTYKENFLKRFQLTKLPPYLIFCIKRFTKNNFFVEKNPTIVNFPITNVDLREYLSEEVQAVHKNTTYDLIANIVHDGKPSEGSYRIHVLHHGTGKWYELQDLQVTDILPQMITLSEAYIQIWKRRDNDETNQQGA
B2: Zinc finger CCCH domain-containing protein 18 (protein, UniProt Q86VM9 1-953)
chain: MDVAESPERDPHSPEDEEQPQGLSDDDILRDSGSDQDLDGAGVRASDLEDEESAARGPSQEEEDNHSDEEDRASEPKSQDQDSEVNELSRGPTSSPCEEEGDEGEEDRTSDLRDEASSVTRELDEHELDYDEEVPEEPAPAVQEDEAEKAGAEDDEEKGEGTPREEGKAGVQSVGEKESLEAAKEKKKEDDDGEIDDGEIDDDDLEEGEVKDPSDRKVRPRPTCRFFMKGNCTWGMNCRFIHPGVNDKGNYSLITKADPFPPNGAPPLGPHPLMPANPWGGPVVDEILPPPPPEPPTESAWERGLRHAKEVLKKATIRKEQEPDFEEKRFTVTIGEDEREFDKENEVFRDWNSRIPRDVRDTVLEPYADPYYDYEIERFWRGGQYENFRVQYTETEPYHNYRERERERERENRQRERERERERDRERERRQRERERERERERDKERQRRKEEWERERAKRDEKDRQHRDRDREKEREKEKGKPKPRSPQPPSRQAEPPKKEAATTGPQVKRADEWKDPWRRSKSPKKKLGVSVSPSRARRRRKTSASSASASNSSRSSSRSSSYSGSGSSRSRSRSSSYSSYSSRSSRHSSFSGSRSRSRSFSSSPSPSPTPSPHRPSIRTKGEPAPPPGKAGEKSVKKPAPPPAPPQATKTTAPVPEPTKPGDPREARRKERPARTPPRRRTLSGSGSGSGSSYSGSSSRSRSLSVSSVSSVSSATSSSSSAHSVDSEDMYADLASPVSSASSRSPAPAQTRKEKGKSKKEDGVKEEKRKRDSSTQPPKSAKPPAGGKSSQQPSTPQQAPPGQPQQGTFVAHKEIKLTLLNKAADKGSRKRYEPSDKDRQSPPPAKRPNTSPDRGSRDRKSGGRLGSPKPERQRGQNSKAPAAPADRKRQLSPQSKSSSKVTSVPGKASDPGAASTKSGKASTLSRREELLKQLKAVEDAIARKRAKIPGKA
B3: Apoptotic chromatin condensation inducer in the nucleus (protein, UniProt Q9UKV3 1-1341)
chain: MWRRKHPRTSGGTRGVLSGNRGVEYGSGRGHLGTFEGRWRKLPKMPEAVGTDPSTSRKMAELEEVTLDGKPLQALRVTDLKAALEQRGLAKSGQKSALVKRLKGALMLENLQKHSTPHAAFQPNSQIGEEMSQNSFIKQYLEKQQELLRQRLEREAREAAELEEASAESEDEMIHPEGVASLLPPDFQSSLERPELELSRHSPRKSSSISEEKGDSDDEKPRKGERRSSRVRQARAAKLSEGSQPAEEEEDQETPSRNLRVRADRNLKTEEEEEEEEEEEEDDEEEEGDDEGQKSREAPILKEFKEEGEEIPRVKPEEMMDERPKTRSQEQEVLERGGRFTRSQEEARKSHLARQQQEKEMKTTSPLEEEEREIKSSQGLKEKSKSPSPPRLTEDRKKASLVALPEQTASEEETPPPLLTKEASSPPPHPQLHSEEEIEPMEGPAPAVLIQLSPPNTDADTRELLVSQHTVQLVGGLSPLSSPSDTKAESPAEKVPEESVLPLVQKSTLADYSAQKDLEPESDRSAQPLPLKIEELALAKGITEECLKQPSLEQKEGRRASHTLLPSHRLKQSADSSSSRSSSSSSSSSRSRSRSPDSSGSRSHSPLRSKQRDVAQARTHANPRGRPKMGSRSTSESRSRSRSRSRSASSNSRKSLSPGVSRDSSTSYTETKDPSSGQEVATPPVPQLQVCEPKERTSTSSSSVQARRLSQPESAEKHVTQRLQPERGSPKKCEAEEAEPPAATQPQTSETQTSHLPESERIHHTVEEKEEVTMDTSENRPENDVPEPPMPIADQVSNDDRPEGSVEDEEKKESSLPKSFKRKISVVSATKGVPAGNSDTEGGQPGRKRRWGASTATTQKKPSISITTESLKSLIPDIKPLAGQEAVVDLHADDSRISEDETERNGDDGTHDKGLKICRTVTQVVPAEGQENGQREEEEEEKEPEAEPPVPPQVSVEVALPPPAEHEVKKVTLGDTLTRRSISQQKSGVSITIDDPVRTAQVPSPPRGKISNIVHISNLVRPFTLGQLKELLGRTGTLVEEAFWIDKIKSHCFVTYSTVEEAVATRTALHGVKWPQSNPKFLCADYAEQDELDYHRGLLVDRPSETKTEEQGIPRPLHPPPPPPVQPPQHPRAEQREQERAVREQWAEREREMERRERTRSEREWDRDKVREGPRSRSRSRDRRRKERAKSKEKKSEKKEKAQEEPPAKLLDDLFRKTKAAPCIYWLPLTDSQIVQKEAERAERAKEREKRRKEQEEEEQKEREKEAERERNRQLEREKRREHSRERDRERERERERDRGDRDRDRERDRERGRERDRRDTKRHSRSRSRSTPVRDRGGRR
B4: Exportin-T (protein, UniProt O43592 1-962)
chain: MDEQALLGLNPNADSDFRQRALAYFEQLKISPDAWQVCAEALAQRTYSDDHVKFFCFQVLEHQVKYKYSELTTVQQQLIRETLISWLQAQMLNPQPEKTFIRNKAAQVFALLFVTEYLTKWPKFFFDILSVVDLNPRGVDLYLRILMAIDSELVDRDVVHTSEEARRNTLIKDTMREQCIPNLVESWYQILQNYQFTNSEVTCQCLEVVGAYVSWIDLSLIANDRFINMLLGHMSIEVLREEACDCLFEVVNKGMDPVDKMKLVESLCQVLQSAGFFSIDQEEDVDFLARFSKLVNGMGQSLIVSWSKLIKNGDIKNAQEALQAIETKVALMLQLLIHEDDDISSNIIGFCYDYLHILKQLTVLSDQQKANVEAIMLAVMKKLTYDEEYNFENEGEDEAMFVEYRKQLKLLLDRLAQVSPELLLASVRRVFSSTLQNWQTTRFMEVEVAIRLLYMLAEALPVSHGAHFSGDVSKASALQDMMRTLVTSGVSSYQHTSVTLEFFETVVRYEKFFTVEPQHIPCVLMAFLDHRGLRHSSAKVRSRTAYLFSRFVKSLNKQMNPFIEDILNRIQDLLELSPPENGHQSLLSSDDQLFIYETAGVLIVNSEYPAERKQALMRNLLTPLMEKFKILLEKLMLAQDEERQASLADCLNHAVGFASRTSKAFSNKQTVKQCGCSEVYLDCLQTFLPALSCPLQKDILRSGVRTFLHRMIICLEEEVLPFIPSASEHMLKDCEAKDLQEFIPLINQITAKFKIQVSPFLQQMFMPLLHAIFEVLLRPAEENDQSAALEKQMLRRSYFAFLQTVTGSGMSEVIANQGAENVERVLVTVIQGAVEYPDPIAQKTCFIILSKLVELWGGKDGPVGFADFVYKHIVPACFLAPLKQTFDLADAQTVLALSECAVTLKTIHLKRGPECVQYLQQEYLPSLQVAPEIIQEFCQALQQPDAKVFKNYLKVFFQRAKP
B5: Splicing factor U2AF 35 kDa subunit (protein, UniProt Q01081 1-240)
chain: MAEYLASIFGTEKDKVNCSFYFKIGACRHGDRCSRLHNKPTFSQTIALLNIYRNPQNSSQSADGLRCAVSDVEMQEHYDEFFEEVFTEMEEKYGEVEEMNVCDNLGDHLVGNVYVKFRREEDAEKAVIDLNNRWFNGQPIHAELSPVTDFREACCRQYEMGECTRGGFCNFMHLKPISRELRRELYGRRRKKHRSRSRSRERRSRSRDRGRGGGGGGGGGGGGRERDRRRSRDRERSGRF

Results are given in words; binding and its absence hold for the method and conditions named. In cells and extracts the contact can be indirect. A yes stands for co-enrichment or nearness to the bait. Other partners may have been found.

In this assay the target is T1, E3 ubiquitin-protein ligase Midline-1 (UniProt O15344).
T1 sequence: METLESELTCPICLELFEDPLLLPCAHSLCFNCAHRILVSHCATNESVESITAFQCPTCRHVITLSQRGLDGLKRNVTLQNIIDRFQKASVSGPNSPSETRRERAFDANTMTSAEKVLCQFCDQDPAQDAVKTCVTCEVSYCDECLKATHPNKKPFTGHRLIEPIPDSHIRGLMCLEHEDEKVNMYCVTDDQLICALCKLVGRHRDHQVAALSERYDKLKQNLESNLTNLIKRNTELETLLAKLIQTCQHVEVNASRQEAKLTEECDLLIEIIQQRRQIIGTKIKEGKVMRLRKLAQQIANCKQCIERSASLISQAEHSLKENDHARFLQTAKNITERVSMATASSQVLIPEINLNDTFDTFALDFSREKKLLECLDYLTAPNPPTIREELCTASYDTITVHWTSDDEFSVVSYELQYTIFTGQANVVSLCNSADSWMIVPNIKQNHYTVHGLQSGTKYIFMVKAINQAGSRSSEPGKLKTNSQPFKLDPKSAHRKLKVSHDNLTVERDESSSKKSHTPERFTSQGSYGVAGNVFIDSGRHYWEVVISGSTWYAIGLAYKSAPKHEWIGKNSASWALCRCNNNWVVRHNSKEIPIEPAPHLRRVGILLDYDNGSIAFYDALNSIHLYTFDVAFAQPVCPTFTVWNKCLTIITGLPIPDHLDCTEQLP
In words: affinity purification with mass spectrometry; MID1-FLAG expressed in HEK293T, lysate in TKM buffer (20 mM Tris pH 7.4, 100 mM KCl, 5 mM MgCl2, 0.5% NP40, 1 mM DTT), anti-FLAG M1 agarose overnight at 4 °C, 6 washes; untransfected cells as control; Q-Exactive, MaxQuant, 1% FDR.
Take B1: the binding result is listed as “binds”. Consider B2, for which the binding result is recorded as “binds”. As for B3, the entry is “binds”; as for B4, “binds”; as for B5, “binds”.
